At least one structure is not confirmed: it was looked up by name or label, or the drawing left a doubt.
Test system: human T cells
Test: Gene expression by human T cells after coculture with adjuvant-treated DC (quantitative PCR)
Format: cell-based
Conditions: human DC treated with adjuvant 24 h, cultured with allogenic naive CD4+ T cells, mRNA 24 h to 5 days later; only above 2-fold increase considered significant

For CCOCc1nc2c(N)nc3ccccc3c2n1CC(C)(C)O [Adjuvant R848], the “Gene expression by T cells: Foxp3” value was “−”, the “Gene expression by T cells: GATA3” value was “−” and the “Gene expression by T cells: IFN” value was “+”. For the same compound, the “Gene expression by T cells: IL10” value was “−”, the “Gene expression by T cells: TGF” value was “−” and the “Gene expression by T cells: Tbet” value was “−”.

Reference: patent publication US10610586B2, “Compositions for antigen-specific induction of tolerance” (STALLERGENES, priority 2005, dated 2020)
